According to paper PMC7072741:
Results are given in words; binding and its absence hold for the method and conditions named. Binding seen in cells or lysates may run through a third protein. Binding can be weak; no strength is given. Tags and fused reporters may be left off the sequences shown.

B1: His-LASP1 phosphorylated at S146 by the constitutive active C-subunit of PKA (protein, UniProt Q14847 1-261)
chain: MNPNCARCGKIVYPTEKVNCLDKFWHKACFHCETCKMTLNMKNYKGYEKKPYCNAHYPKQSFTMVADTPENLRLKQQSELQSQVRYKEEFEKNKGKGFSVVADTPELQRIKKTQDQISNIKYHEEFEKSRMGPSGGEGMEPERRDSQDGSSYRRPLEQQQPHHIPTSAPVYQQPQQQPVAQSYGGYKEPAAPVSIQRSAPGGGGKRYRAVYDYSAADEDEVSFQDGDTIVNVQQIDDGWMYGTVERTGDTGMLPANYVEAI
modifications: phosphoserine at 146
B2: His-LASP1 phosphorylated at Y171 by active Lyn kinase (protein, UniProt Q14847 1-261)
chain: B1 chain
modifications: phosphotyrosine at 171
B3: His-LASP1 (unphosphorylated recombinant His-tagged LASP1) (protein, UniProt Q14847 1-261)
chain: B1 chain

Molecular target: GST-CXCR4 (recombinant C-terminus of CXCR4 bound to GST)
Assay: pull-down; His-LASP1 (unphosphorylated or phosphorylated) with the recombinant C-terminus of CXCR4 bound to GST; the paper calls it co-immunoprecipitation; LASP1 forms detected by Western blot; both purified

Binder | binding
B1 | binds
B2 | no binding
B3 | no binding
